Assay [1] has as its target biotinylated neuropeptide Y (UniProt P01303). As to the kind of experiment: pull-down of phage on bNPY immobilized on streptavidin-coated magnetic beads, SDS-PAGE and Western blot (anti-fd / anti-NPY).
Assay [2] deals with streptavidin (on streptavidin-coated magnetic beads) (UniProt P22629). As to the kind of experiment: pull-down of phage on streptavidin-coated magnetic beads, SDS-PAGE and Western blot (anti-fd).

These are yes or no findings as the source states them, for the method shown. Binding seen in cells or lysates may run through a third protein. Some entries that bind do so weakly or less than the wild type.

On to VQHNTKYSVVIR (peptide, not shown: large carriers) [NPY-binding peptide N1 (SEQ ID NO:1), displayed on bacteriophage], for which, in assay [1], the binding result is listed as “binds”.

FPNWSLRPMNQM (peptide, not shown: large carriers) [NPY-binding peptide N3 (SEQ ID NO:3), displayed on bacteriophage]: the binding result in assay [1] is given as “binds”.

LTTQTLWDNHPQ (peptide, not shown: large carriers) [streptavidin-binding peptide C1 with HPQ motif (SEQ ID NO:4), displayed on bacteriophage]: in assay [2], the binding entry was “binds”.

Turning to YHPNGMNPYTKA (peptide, not shown: large carriers) [NPY-binding peptide N2 (SEQ ID NO:2), displayed on bacteriophage], in assay [1], the binding result is on record as “binds”.

Regarding HGIDGLQMWHPQ (peptide, not shown: large carriers) [streptavidin-binding peptide C2 with HPQ motif (SEQ ID NO:5), displayed on bacteriophage], the binding result in assay [2] is reported as “binds”.
